Out of some 580,000 compounds screened, about 6,100 (1.1%) were called active. The inconclusive results got no clear call from the source; some entries with a clear call stand among them for comparison. Calls come from the whole dose curve; as a rule, active = well fitted inhibition curve with a large enough effect; inconclusive = small, poorly fitted or top-dose-only effect, or another doubt; inactive = no such curve, though single readings can be large or run the other way. A potency beside an inconclusive call is a rough fit, not a confirmed value.
Biological target: Polyunsaturated fatty acid lipoxygenase ALOX12 (Homo sapiens) (UniProt P18054)
Assay: Primary qHTS assay for inhibitors of human arachidonate 12S-lipoxygenase (ALOX12): Round 2
Settings: purified 12hLO, xylenol orange hydroperoxide absorbance; activity change, negative = inhibition: at 108 µM (top of the series) unless noted
Procedure, shortened: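 Purified human 12hLO at 150 nM in 25 mM Hepes, 0.01% Triton X-100, pH 7.0, preincubated 15 min at room temperature with compound. Reaction started with 40 uM arachidonic acid, 30 min at room temperature. Hydroperoxide measured by Fe-xylenol orange, 573/405 nm absorbance ratio.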
% is set by controls: 0 for no effect and ±100 for the full control effect; potency is the fitted concentration of half-maximal effect.

Amino acid sequences for entries named in this document (tags omitted). A change or cut given only in a name is not applied to a line headed by its entry.
UniProt P18054: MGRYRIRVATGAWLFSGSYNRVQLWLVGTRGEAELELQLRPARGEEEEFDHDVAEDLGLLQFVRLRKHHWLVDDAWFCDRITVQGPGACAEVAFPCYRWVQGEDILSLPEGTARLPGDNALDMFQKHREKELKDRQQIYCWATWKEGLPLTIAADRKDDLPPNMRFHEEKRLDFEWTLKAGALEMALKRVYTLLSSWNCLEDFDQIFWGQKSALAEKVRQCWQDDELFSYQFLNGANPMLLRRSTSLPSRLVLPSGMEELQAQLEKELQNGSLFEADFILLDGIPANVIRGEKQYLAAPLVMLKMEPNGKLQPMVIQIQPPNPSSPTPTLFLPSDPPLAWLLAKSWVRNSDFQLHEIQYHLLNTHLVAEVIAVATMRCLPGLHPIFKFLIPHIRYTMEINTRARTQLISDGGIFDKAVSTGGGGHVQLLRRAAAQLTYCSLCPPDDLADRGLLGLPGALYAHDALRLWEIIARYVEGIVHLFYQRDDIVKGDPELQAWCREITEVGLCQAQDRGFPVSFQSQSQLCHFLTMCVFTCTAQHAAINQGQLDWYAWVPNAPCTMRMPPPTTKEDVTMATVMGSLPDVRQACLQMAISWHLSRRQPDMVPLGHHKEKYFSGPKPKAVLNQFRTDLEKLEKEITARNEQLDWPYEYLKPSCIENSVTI

Row | SMILES | Potency | activity change, negative = inhibition
1 | C/C(=N\NC1=N[C@H]2CS(=O)(=O)C[C@H]2S1)c1ccccc1 | inconclusive: 70.8 µM [inhibitor, partial curve, poor fit] | –
2 | O=C(Nc1c(F)cc(F)cc1Br)c1cc(-c2ccco2)on1 | inconclusive: 50.1 µM [inhibitor, partial curve, poor fit] | –
3 | CCCCC#Cc1ccc2c(c1)COc1c3ccccc3nn1-2 | – | inactive: -11%
4 | N#Cc1cccc(C(=O)Nc2ccc(Cl)cc2C(F)(F)F)c1 | – | inactive: 40.4%
5 | CCN(CC)CCC(=O)c1ccc(F)cc1 | – | inactive: 0.332%
6 | O=C(NCC1CC1)c1cccc2c(-c3ccc(F)c(F)c3)coc12 | – | inactive: -2.13%
7 | CCN(CC)C(=O)Cn1c(C)c(/C=C/c2cc[n+](C)cc2)c2ccccc21 | inconclusive: 44.7 µM [inhibitor, partial curve, poor fit] | –
8 | Cc1cnc(C(=O)OCC(=O)c2cc(C)n(C)c2C)cn1 | inconclusive: 50.1 µM [inhibitor, partial curve, poor fit] | –
9 | CC(C)CCNC(=O)C(=O)Nc1ccccc1 | inconclusive: 0.501 µM [inhibitor, full curve] | –
10 | COc1ccccc1CNc1ncncc1-c1ccccc1C(F)(F)F | inconclusive: 22.4 µM [inhibitor, partial curve, poor fit] | –
11 | Cc1ccc2c(CSc3nnnn3-c3ccc(Cl)cc3)cc(=O)oc2c1 | – | inactive: -52%
12 | CC(C)(C)c1oc(C(=O)O)cc1CN1CCOCC1 | inconclusive: 141 µM [inhibitor, single point] | –
13 | Cc1cc(=O)[nH]c(-c2cccs2)n1 | inconclusive: 89.1 µM [inhibitor, single point] | –
14 | COC(=O)c1ccc(C(=O)N2CCN(C(c3ccc(F)cc3)c3ccc(F)cc3)CC2)s1 | inconclusive: 126 µM [inhibitor, single point] | –
15 | CC(=O)Nc1cccc(C(C)NC(=O)Nc2cccc(C(F)(F)F)c2)c1 (configuration not stated) | inconclusive: 112 µM [inhibitor, single point] | –
16 | CCc1ccc(OCC(=O)OCC(=O)c2ccc3c(c2)NC(=O)CO3)cc1 | – | inactive: -41.3% [at 57.4 µM]
17 | CC(=O)OC1CCC2(C=O)C3CCC4(C)CC(C5=CC(=O)OC5)CC4(O)C3CCC2(O)C1 (configuration not stated) | inconclusive: 1 µM [inhibitor, full curve, poor fit] | –
18 | CC(C)N(C(=O)CSc1nnc(-c2cc3ccccc3cc2O)n1Cc1ccco1)C(C)C | – | inactive: -7.48%
19 | CSC1=N/C(=C\c2ccccc2Br)C(=O)S1 | inconclusive: 0.794 µM [inhibitor, full curve, poor fit] | –
20 | Brc1ccccc1OCCCn1cnc2ccccc21 | – | inactive: -13.1%
21 | COCC(C)Nc1ccc(S(=O)(=O)N2CCCC2)cc1[N+](=O)[O-] (configuration not stated) | – | inactive: -15.2%
22 | O=C(Nc1nc2ccccc2n1CCN1CCOCC1)c1cn(-c2ccccc2)nc1-c1ccccc1 | – | inactive: 493%
23 | COc1cc([N+](=O)[O-])ccc1Nc1nc(C)cc(C)n1 | inconclusive: 50.1 µM [inhibitor, partial curve, poor fit] | –
24 | Oc1ccc(-c2cn3ccccc3n2)cc1 | – | inactive: -0.75%

Some of the entries so far, tab-delimited.
Row	SMILES	Potency	activity change, negative = inhibition
2	O=C(Nc1c(F)cc(F)cc1Br)c1cc(-c2ccco2)on1	inconclusive: 50.1 µM [inhibitor, partial curve, poor fit]	–
3	CCCCC#Cc1ccc2c(c1)COc1c3ccccc3nn1-2	–	inactive: -11%
4	N#Cc1cccc(C(=O)Nc2ccc(Cl)cc2C(F)(F)F)c1	–	inactive: 40.4%
5	CCN(CC)CCC(=O)c1ccc(F)cc1	–	inactive: 0.332%
6	O=C(NCC1CC1)c1cccc2c(-c3ccc(F)c(F)c3)coc12	–	inactive: -2.13%
7	CCN(CC)C(=O)Cn1c(C)c(/C=C/c2cc[n+](C)cc2)c2ccccc21	inconclusive: 44.7 µM [inhibitor, partial curve, poor fit]	–
8	Cc1cnc(C(=O)OCC(=O)c2cc(C)n(C)c2C)cn1	inconclusive: 50.1 µM [inhibitor, partial curve, poor fit]	–
9	CC(C)CCNC(=O)C(=O)Nc1ccccc1	inconclusive: 0.501 µM [inhibitor, full curve]	–
10	COc1ccccc1CNc1ncncc1-c1ccccc1C(F)(F)F	inconclusive: 22.4 µM [inhibitor, partial curve, poor fit]	–
11	Cc1ccc2c(CSc3nnnn3-c3ccc(Cl)cc3)cc(=O)oc2c1	–	inactive: -52%
12	CC(C)(C)c1oc(C(=O)O)cc1CN1CCOCC1	inconclusive: 141 µM [inhibitor, single point]	–
13	Cc1cc(=O)[nH]c(-c2cccs2)n1	inconclusive: 89.1 µM [inhibitor, single point]	–
14	COC(=O)c1ccc(C(=O)N2CCN(C(c3ccc(F)cc3)c3ccc(F)cc3)CC2)s1	inconclusive: 126 µM [inhibitor, single point]	–
15	CC(=O)Nc1cccc(C(C)NC(=O)Nc2cccc(C(F)(F)F)c2)c1 (configuration not stated)	inconclusive: 112 µM [inhibitor, single point]	–

Two entries drawn at random from those above:
Row | SMILES | Potency | activity change, negative = inhibition
24 | Oc1ccc(-c2cn3ccccc3n2)cc1 | – | inactive: -0.75%
22 | O=C(Nc1nc2ccccc2n1CCN1CCOCC1)c1cn(-c2ccccc2)nc1-c1ccccc1 | – | inactive: 493%

Additional records:

Row | SMILES | Potency | activity change, negative = inhibition
25 | Cc1cc(OCC(=O)N(Cc2ccco2)C2CCS(=O)(=O)C2)cc(C)c1Cl (configuration not stated) | inconclusive: 112 µM [inhibitor, partial curve, poor fit] | –
26 | CCCCN(C)C(=O)C1CCCN(c2ncnc3onc(C)c23)C1 (configuration not stated) | – | inactive: -11.9%
27 | Cc1nc(SCC(=O)NCc2ccco2)nc(C)c1C | – | inactive: -0.46%
28 | CN(C)C(=O)c1cccc(-c2cc(NC=O)c3ncc(-c4ccc(F)c(Cl)c4)n3c2)c1 | inconclusive: 15.8 µM [inhibitor, full curve] | –
29 | C/C(=N\NC(=O)c1nnn(-c2nonc2N)c1-c1cccs1)c1ccc(C)cc1 | – | inactive: 1.18%
30 | N#Cc1ccc(OCC(=O)Nc2cc(S(=O)(=O)N3CCOCC3)ccc2N2CCCC2)cc1 | – | inactive: 24.4%
31 | COc1cccc(C(O)c2nc(-c3ccc(F)cc3OC)cs2)c1 (configuration not stated) | – | inactive: -3.21%
32 | Cc1c(OCC(=O)NC(Cc2ccc(Cl)cc2)C(=O)O)ccc2c(-c3ccccc3)cc(=O)oc12 (configuration not stated) | inconclusive: 89.1 µM [inhibitor, single point] | –
33 | O=C(Nc1ccccc1C(F)(F)F)c1ccccc1 | – | inactive: -0.623%
34 | COc1cc(C2/C(=C(\O)c3ccc4c(c3)CC(C)O4)C(=O)C(=O)N2CC2CCCO2)cc(OC)c1OC (configuration not stated) | inconclusive: 25.1 µM [inhibitor, partial curve, poor fit] | –
35 | CCOc1cccc2cc(C(=O)NCCC3=CCCCC3)c(=O)oc12 | inconclusive: 44.7 µM [inhibitor, single point] | –
36 | COc1ccc(CNC(=O)Nc2nc(C(N)CCc3ccccc3)cs2)cc1 (configuration not stated) | – | inactive: -2.83%
37 | Clc1ccc2nc(N3CCNCC3)nc(-c3ccccc3)c2c1 | – | inactive: -18%
38 | NNc1cccc2ncccc12 | active: 3.55 µM | –
39 | COc1ccc(OC)c(C2C(C(=O)c3ccco3)=C(O)C(=O)N2c2nc3ccc(F)cc3s2)c1 (configuration not stated) | inconclusive: 1.12 µM [inhibitor, full curve, poor fit] | –
40 | COC(=O)c1sc(=S)n(-c2cc(F)ccc2F)c1N | inconclusive: 39.8 µM [inhibitor, partial curve, poor fit] | –
41 | CC(=O)c1c(C)nn(CC(=O)NCc2c(C)ncc3c2CCNC3)c1C | – | inactive: -15.6%
42 | Cc1cccc(S(=O)(=O)N2CCCN(C)c3ccccc32)c1 | inconclusive: 31.6 µM [inhibitor, partial curve, poor fit] | –
43 | CC(C)(C)Nc1nc2ccc([N+](=O)[O-])cc2o1 | inconclusive: 141 µM [inhibitor, partial curve, poor fit] | –
44 | O=C(O)CNS(=O)(=O)c1c(F)cccc1F | inconclusive: 6.31 µM [inhibitor, full curve, poor fit] | –
45 | Cc1ccc(Nc2nc(N)c(C(=O)c3c(C)[nH]c4ccccc34)s2)c(C)c1 | inconclusive: 79.4 µM [inhibitor, partial curve, poor fit] | –
46 | Cc1nsc(NC(=O)NCc2cccc(Cl)c2Cl)n1 | inconclusive: 50.1 µM [inhibitor, partial curve, poor fit] | –
47 | C(=Cc1c[nH]c2ccccc12)c1nccc2ccccc12 | inconclusive: 50.1 µM [inhibitor, partial curve, poor fit] | –
48 | O=C(CSc1oc(-c2cccs2)nc1S(=O)(=O)c1ccccc1)NC1CCCCC1 | inconclusive: 35.5 µM [inhibitor, partial curve] | –

Row | SMILES | Potency | activity change, negative = inhibition
49 | CCCCNC(=S)N1CCN(C)CC1 | inconclusive: 0.562 µM [inhibitor, full curve, poor fit] | –
50 | O=C(CNC(=O)c1ccccc1Br)N/N=C\c1cc([N+](=O)[O-])cc(Br)c1O | inconclusive: 17.8 µM [inhibitor, full curve] | –
51 | O=C(NC1CCN(c2nc3ncccc3o2)CC1)C1CCCC1 | – | inactive: 10.3% [at 176 µM]
52 | CCCCCCOc1ccc(C2C(=O)N(C3CCCCC3)CC(=O)N2CCC)cc1 (configuration not stated) | inconclusive: 50.1 µM [inhibitor, partial curve, poor fit] | –
53 | NC1CCN(CCCc2ccccc2)CC1 | inconclusive: 44.7 µM [inhibitor, partial curve, poor fit] | –
54 | CC(C)c1ccc(CNCCCn2ccnc2)cc1 | inconclusive: 15.8 µM [inhibitor, full curve] | –
55 | Cc1cc(N2CCN(Cc3ccccc3)CC2)n2nc(C)c(-c3ccccc3)c2n1 | – | inactive: 0%
56 | N=C1/C(=C\c2coc3ccccc3c2=O)C(=O)N=C2SC(c3ccncc3)=NN12 | inconclusive: 35.5 µM [inhibitor, partial curve, poor fit] | –
57 | CCOC(=O)Cn1c(=NC(=O)c2nc3ccccc3s2)sc2cc(S(N)(=O)=O)ccc21 | – | inactive: 0.409%
58 | CN1CCN(c2ccc(S(=O)(=O)N3CCCCC3)cc2NC(=O)c2ccc(C#N)cc2)CC1 | – | inactive: -9.19%
59 | O=C(O)C(=O)Cc1c[nH]c2ccccc12 | inconclusive: 44.7 µM [inhibitor, partial curve] | –
60 | CC(C)CC(N)c1csc(NC(=O)c2cc(C(C)(C)C)nn2Cc2ccccc2)n1 (configuration not stated) | inconclusive: 50.1 µM [inhibitor, partial curve, poor fit] | –
61 | COc1cc2c(-c3cc4ccccc4o3)cc(=O)oc2cc1C | – | inactive: 27.5%
62 | COc1cc(CNCc2cc(OC)c(OC)c(OC)c2)cc(OC)c1 | inconclusive: 0.282 µM [inhibitor, full curve, poor fit] | –
63 | CCCCNc1ccc2c(c1)OC[C@H](C)NS2(=O)=O | inconclusive: 39.8 µM [inhibitor, partial curve, poor fit] | –
64 | Cc1ccccc1C(C)Nc1ccc([N+](=O)[O-])cc1C#N (configuration not stated) | – | inconclusive: -43.6% [inhibitor]
65 | COc1ccc(OCC(=O)Nc2nc(-c3ccc(Br)o3)ns2)cc1 | inconclusive: 35.5 µM [inhibitor, single point] | –
66 | COCCN(C)C[C@H]1C[C@H](CO)CN(C(=O)c2cc(Cl)cc(OC)c2)C1 | inconclusive: 28.2 µM [inhibitor, partial curve, poor fit] | –
67 | CCCc1nn(C)c2c(=O)[nH]c(-c3cc(S(=O)(=O)Nc4ccc(C)cc4C)ccc3OCC)nc12 | – | inactive: -2.68%
68 | Nc1ccc(C(=O)O)c([N+](=O)[O-])c1 | inconclusive: 25.1 µM [inhibitor, partial curve] | –
69 | Cc1cc(-c2csc(NC(=O)c3ccc(=O)[nH]c3)n2)c(C)n1Cc1ccccc1 | – | inactive: -0.457%
70 | CCOC(=O)C1(Cc2ccccc2C)CCCN(C(=O)COC)C1 (configuration not stated) | – | inactive: 6.19%
71 | Cc1ccc(C)c(OCC(=O)N2CCN(c3ncccn3)CC2)c1 | inconclusive: 63.1 µM [inhibitor, partial curve, poor fit] | –
72 | N#C/C(=C\c1ccc(Cl)cc1Cl)c1nc(-c2cccc(Cl)c2)cs1 | – | inactive: -10.9%

— PubChem BioAssay AID1671190 (National Center for Advancing Translational Sciences (NCATS), 2021)
